According to patent US20230220021A1 (University of Copenhagen, priority 2020, published 2023):

Test system: mouse (mus musculus) brain lysate
Assay: Affinity-based pull down from brain lysate with LC-MS/MS
Details: cytosolic fraction; peptide on Dynabeads M-270 Amine

Question: Which “proteins enriched in pull down” value does the source give for `CC[C@H](C)[C@@H]1NC(=O)[C@H]([C@@H](C)O)NC(=O)[C@H](CCCCN)NC(=O)[C@@H]2CCCN2C(=O)[C@H]([C@@H](C)O)NC(=O)CNC(=O)[C@H](CC(=O)O)NC(=O)CNC(=O)[C@H]([C@@H](C)O)NC(=O)[C@H](Cc2ccccc2)NC(=O)[C@H]([C@@H](C)O)NC(=O)[C@H]([C@@H](C)O)NC(=O)[C@H](CCC(=O)O)NC(=O)[C@H](CC(C)C)NC(=O)[C@H](Cc2c[nH]cn2)NC(=O)[C@H]([C@@H](C)O)NC(=O)[C@H](CCC(N)=O)NC(=O)CNC(=O)[C@H]2CCCN2C(=O)[C@H](CCC(N)=O)NC(=O)[C@H]([C@@H](C)O)NC(=O)[C@H](C(C)C)NC(=O)[C@H](CCCNC(=N)N)NC1=O` [SEQ ID NO: 12] here?
Answer: significantly enriched PSD-95

Question: Which “proteins enriched in pull down” value does the source give for “KLSSIESDV [SEQ ID NO: 435, reference compound]” here?
Answer: enriches significantly the multi-PDZ domain proteins membrane-associated guanylate kinase inverted MAGUK (Magi1 and Magi2)

Same assay, conditions: membranal fraction; peptide on Dynabeads M-270 Amine

Question: With `CC[C@H](C)[C@@H]1NC(=O)[C@H]([C@@H](C)O)NC(=O)[C@H](CCCCN)NC(=O)[C@@H]2CCCN2C(=O)[C@H]([C@@H](C)O)NC(=O)CNC(=O)[C@H](CC(=O)O)NC(=O)CNC(=O)[C@H]([C@@H](C)O)NC(=O)[C@H](Cc2ccccc2)NC(=O)[C@H]([C@@H](C)O)NC(=O)[C@H]([C@@H](C)O)NC(=O)[C@H](CCC(=O)O)NC(=O)[C@H](CC(C)C)NC(=O)[C@H](Cc2c[nH]cn2)NC(=O)[C@H]([C@@H](C)O)NC(=O)[C@H](CCC(N)=O)NC(=O)CNC(=O)[C@H]2CCCN2C(=O)[C@H](CCC(N)=O)NC(=O)[C@H]([C@@H](C)O)NC(=O)[C@H](C(C)C)NC(=O)[C@H](CCCNC(=N)N)NC1=O` [SEQ ID NO: 12] as the compound, how does the “enrichment of PDZ-containing proteins in pull down” value read?
Answer: not significantly enriched

Question: Which “enrichment of PDZ-containing proteins in pull down” value does the source give for “KLSSIESDV [SEQ ID NO: 435, reference compound]” here?
Answer: not significantly enriched

Test system: not listed separately
Assay: general procedure: Fmoc solid-phase peptide synthesis; Rink Amide-ChemMatrix resin (cyclic peptides); preloaded Fmoc-Gly or Fmoc-Val-Wang resin, 100-200 mesh (linear peptides); DIC / Oxyma Pure
Details: whole synthesis

Question: For “Cyclo-(TH(1-Me)LETTFTGDGTPKTIRVTQpG(Qα))”, which “final purity (method not given)” value is on record?
Answer: >95%

Question: With “Cyclo-(TH(3-Me)LETTFTGDGTPKTIRVTQpG(Qα))” as the compound, how does the “final purity (method not given)” value read?
Answer: >95%

Question: With Cyclo-(THIETTFTGDGTPKTIRVQpG(Qα)) as the compound, how does the “final purity (method not given)” value read?
Answer: >95%

Question: With Cyclo-(THLETTFGDGEPKTIRVTQpG(Qα)) as the compound, how does the “final purity (method not given)” value read?
Answer: >95%

Question: For Cyclo-(THLETTFGdGEPKTIRVTQpG(Qα)), which “final purity (method not given)” value is on record?
Answer: >95%

Question: Which “final purity (method not given)” value does the source give for Cyclo-(THLETTFTGDGTPKTIRVTqpG(Qα)) here?
Answer: >95%

Question: Which “final purity (method not given)” value does the source give for Cyclo-(THLETTFTGDGTPKTIRVtQpG(Qα)) here?
Answer: >95%

Question: Which “final purity (method not given)” value does the source give for Cyclo-(THLETTFTGDGTPKTIRvTQpG(Qα)) here?
Answer: >95%

Question: Which “final purity (method not given)” value does the source give for Cyclo-(THLETTFTGDGTPKTIrVTQpG(Qα)) here?
Answer: >95%

Question: For Cyclo-(THLETTFTGDGTPKTiRVTQpG(Qα)), which “final purity (method not given)” value is on record?
Answer: >95%

Question: For Cyclo-(THLETTFTGDGTPKtIRVTQpG(Qα)), which “final purity (method not given)” value is on record?
Answer: >95%

Question: With Cyclo-(THLETTFTGDGTPkTIRVTQpG(Qα)) as the compound, how does the “final purity (method not given)” value read?
Answer: >95%

Question: With Cyclo-(THLETTFTGDGTpKTIRVTQpG(Qα)) as the compound, how does the “final purity (method not given)” value read?
Answer: >95%

Question: Which “final purity (method not given)” value does the source give for Cyclo-(THLETTFTGDGtPKTIRVTQpG(Qα)) here?
Answer: >95%

Question: For Cyclo-(THLETTFTGDPEPKTIRVTQpG(Qα)), which “final purity (method not given)” value is on record?
Answer: >95%

Question: For Cyclo-(THLETTFTGdGTPKTIRVTQpG(Qα)), which “final purity (method not given)” value is on record?
Answer: >95%

Question: For Cyclo-(THLETTFWGDAEPKTIRVTQpG(Qα)), which “final purity (method not given)” value is on record?
Answer: >95%

Question: For Cyclo-(THLETTFWGDGDPKTIRVTQpG(QG)), which “final purity (method not given)” value is on record?
Answer: >95%

Question: Which “final purity (method not given)” value does the source give for Cyclo-(THLETTFWGDGEPKTIRVTQPG(Qα)) here?
Answer: >95%

Question: For Cyclo-(THLETTFWGDPEPKTIRVTQpG(Qα)), which “final purity (method not given)” value is on record?
Answer: >95%

Question: Which “final purity (method not given)” value does the source give for Cyclo-(THLETTFWGDPTPKTIRVTQpG(QG)) here?
Answer: >95%

Question: Which “final purity (method not given)” value does the source give for Cyclo-(THLETTFWGdGEPKTIRVTQPG(Qα)) here?
Answer: >95%

Question: Which “final purity (method not given)” value does the source give for Cyclo-(THLETTFtGDGTPKTIRVTQpG(Qα)) here?
Answer: >95%

Question: Which “final purity (method not given)” value does the source give for Cyclo-(THLETTfTGDGTPKTIRVTQpG(Qα)) here?
Answer: >95%

Question: Which “final purity (method not given)” value does the source give for Cyclo-(THLETtFTGDGTPKTIRVTQpG(Qα)) here?
Answer: >95%

Question: With Cyclo-(THLEtTFTGDGTPKTIRVTQpG(Qα)) as the compound, how does the “final purity (method not given)” value read?
Answer: >95%

Question: With Cyclo-(THLeTTFTGDGTPKTIRVTQpG(Qα)) as the compound, how does the “final purity (method not given)” value read?
Answer: >95%

Question: Which “final purity (method not given)” value does the source give for Cyclo-(ThLETTFTGDGTPKTIRVTQpG(Qα)) here?
Answer: >95%

Question: With Cyclo-(tHLETTFTGDGTPKTIRVTQpG(Qα)) as the compound, how does the “final purity (method not given)” value read?
Answer: >95%

For part of these data: The same purity stands for every peptide and may come from a single statement.
